The results in this text go back to patent US20200332015A1.

Sequences of proteins named here, by UniProt entry; tags and fusion partners are left off. A change or cut given only in a name is not applied to a line headed by its entry. Residues count along the entry.
UniProt Q07011: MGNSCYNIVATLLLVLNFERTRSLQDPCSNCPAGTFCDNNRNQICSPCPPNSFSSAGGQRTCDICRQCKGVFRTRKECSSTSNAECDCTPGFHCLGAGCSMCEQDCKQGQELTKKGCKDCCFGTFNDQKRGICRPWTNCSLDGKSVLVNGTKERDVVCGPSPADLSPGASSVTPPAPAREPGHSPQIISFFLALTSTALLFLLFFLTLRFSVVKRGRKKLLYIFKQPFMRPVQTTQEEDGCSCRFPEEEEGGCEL
UniProt P41273, residues 50-254: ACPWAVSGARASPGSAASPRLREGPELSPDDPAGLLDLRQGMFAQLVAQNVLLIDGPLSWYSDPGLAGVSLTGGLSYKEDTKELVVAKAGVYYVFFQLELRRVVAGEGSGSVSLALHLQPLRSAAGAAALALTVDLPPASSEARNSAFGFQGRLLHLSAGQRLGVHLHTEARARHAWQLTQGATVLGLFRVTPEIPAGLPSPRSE

Results are given in words; binding and its absence hold for the method and conditions named. Some binding calls cover weakened binding; strength is not graded here.

The target in this test is recombinant human CD137 extracellular domain (Peprotech, cat. 310-15-1MG) (human) (UniProt Q07011). Description: flow cytometry, binder on protein G beads, R-PE labeled CD137 ECD.

Take “CD137L ECD fused to the Fc part of a human IgG1 (from UniProt P41273 50-254) (Fc fusion)”: the binding result is reported as “binds”.
